# Results reported in PubChem BioAssay AID588590 (National Center for Advancing Translational Sciences (NCATS), 2011).
# The chains behind the UniProt entries cited, without tags or fusion partners. Where a name states a change or a piece, a line headed by the entry shows the natural chain unless it says otherwise.
# UniProt Q9UNA4: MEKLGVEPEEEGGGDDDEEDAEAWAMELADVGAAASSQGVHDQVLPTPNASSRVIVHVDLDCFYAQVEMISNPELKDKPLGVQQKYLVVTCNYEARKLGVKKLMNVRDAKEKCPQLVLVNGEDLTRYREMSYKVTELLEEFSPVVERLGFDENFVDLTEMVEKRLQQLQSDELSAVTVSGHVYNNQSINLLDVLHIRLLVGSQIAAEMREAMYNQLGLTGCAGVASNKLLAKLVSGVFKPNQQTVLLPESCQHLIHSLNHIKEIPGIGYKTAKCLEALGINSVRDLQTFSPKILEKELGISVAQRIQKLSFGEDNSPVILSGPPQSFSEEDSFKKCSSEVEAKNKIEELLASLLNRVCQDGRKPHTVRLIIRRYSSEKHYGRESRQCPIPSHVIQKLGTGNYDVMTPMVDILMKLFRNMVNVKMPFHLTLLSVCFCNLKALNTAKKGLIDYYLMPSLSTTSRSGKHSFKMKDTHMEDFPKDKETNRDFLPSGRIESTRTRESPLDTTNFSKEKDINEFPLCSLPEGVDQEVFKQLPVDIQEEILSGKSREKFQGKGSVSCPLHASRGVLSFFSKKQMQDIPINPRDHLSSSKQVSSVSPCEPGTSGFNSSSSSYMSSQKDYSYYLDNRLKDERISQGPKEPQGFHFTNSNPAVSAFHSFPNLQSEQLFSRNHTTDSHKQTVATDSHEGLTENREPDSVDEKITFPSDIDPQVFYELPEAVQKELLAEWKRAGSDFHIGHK
# Screen size: about 390,000 compounds; about 4,000 (1%) were called active. Calls come from the whole dose curve; as a rule, active = well fitted inhibition curve with a large enough effect; inconclusive = small, poorly fitted or top-dose-only effect, or another doubt; inactive = no such curve, though single readings can be large or run the other way. Inconclusive results, whose numbers are uncertain, are shown. Where the call is inconclusive, the potency comes from a doubtful curve fit.
# Biological target: DNA polymerase iota (Homo sapiens) (UniProt Q9UNA4)
# Test: qHTS for Inhibitors of Polymerase Iota
# Details: Pol iota fluorescent replication assay, 10 min; series mostly up to 115 µM
# Summary of the method: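 Pol iota at 10 nM preincubated 15 min with compounds at room temperature; reaction started with fluorescent substrate, 50 nM final. Fluorescence read kinetically at 0 and 10 min; buffer-only wells as negative control.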
# Potency is the fitted concentration of half-maximal effect.
row,Structure (SMILES),Potency
1,Cc1ccc(S(=O)(=O)Oc2ccc(/C=C3/C(=N)N4C(=NC3=O)SN=C4S(C)(=O)=O)cc2)cc1,"inconclusive: 20 µM [inhibitor, full curve, poor fit]"
